# Results from PubChem BioAssay AID1671190 (National Center for Advancing Translational Sciences (NCATS), 2021).
# Sequences of proteins named here, by UniProt entry; tags and fusion partners are left off. A change or cut given only in a name is not applied to a line headed by its entry.
# UniProt P18054: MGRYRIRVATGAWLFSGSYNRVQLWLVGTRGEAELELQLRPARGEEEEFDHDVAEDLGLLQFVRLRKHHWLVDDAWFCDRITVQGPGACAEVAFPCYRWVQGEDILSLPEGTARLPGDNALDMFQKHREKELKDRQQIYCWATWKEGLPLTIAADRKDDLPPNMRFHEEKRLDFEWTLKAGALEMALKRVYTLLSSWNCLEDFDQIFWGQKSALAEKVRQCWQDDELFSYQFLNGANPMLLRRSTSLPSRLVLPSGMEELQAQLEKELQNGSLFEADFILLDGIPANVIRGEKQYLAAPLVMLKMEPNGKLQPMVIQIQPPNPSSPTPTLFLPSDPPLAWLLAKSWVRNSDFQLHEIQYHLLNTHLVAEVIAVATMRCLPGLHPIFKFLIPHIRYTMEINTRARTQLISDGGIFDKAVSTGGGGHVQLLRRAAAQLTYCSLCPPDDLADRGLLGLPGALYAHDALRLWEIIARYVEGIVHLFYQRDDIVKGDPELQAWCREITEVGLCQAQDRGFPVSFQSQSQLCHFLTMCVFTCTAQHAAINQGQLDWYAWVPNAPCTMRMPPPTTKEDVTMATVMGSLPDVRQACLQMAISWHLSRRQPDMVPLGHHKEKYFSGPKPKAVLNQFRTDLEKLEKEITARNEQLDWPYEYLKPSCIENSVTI
# The whole screen tested about 580,000 compounds, of which about 6,100 (1.1%) were called active. This list was built around the results that the source calls inconclusive (neither active nor inactive); the mix of calls is not that of the screen. The call rests on the fitted dose curve; in most records, active means well fitted inhibition curve with a large enough effect; inconclusive means small, poorly fitted or top-dose-only effect, or another doubt; inactive means no such curve, though single readings can be large or run the other way. Potencies beside an inconclusive call are fits to weak or partial responses and may not hold up.
# Biological target: Polyunsaturated fatty acid lipoxygenase ALOX12 (Homo sapiens) (UniProt P18054)
# Test: Primary qHTS assay for inhibitors of human arachidonate 12S-lipoxygenase (ALOX12): Round 2
# Conditions: purified 12hLO, xylenol orange hydroperoxide absorbance; activity change, negative = inhibition: at 108 µM (top of the series) unless noted
# How it was run: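 Purified human 12hLO (150 nM final) in 25 mM Hepes, 0.01% Triton X-100, pH 7.0 was preincubated 15 min at room temperature with compound. Then 40 uM arachidonic acid was added, 30 min. Hydroperoxide was read by Fe-XO absorbance ratio 573/405 nm.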
# On the % scale 0 is the no-effect control and ±100 the full control effect; potency means the concentration at half of the fitted maximal effect.
Structure (SMILES),Potency,"activity change, negative = inhibition"
C[C@@H]1CN([C@@H](C)CO)C(=O)CCCn2nncc2CO[C@@H]1CN(C)C(=O)Nc1ccc(-c2cccs2)cc1,"inconclusive: 141 µM [inhibitor, single point]",–
Cc1ccc2nc(/C(C#N)=C/c3cccc(O)c3)[nH]c2c1,"inconclusive: 89.1 µM [inhibitor, partial curve, poor fit]",–
COc1ccc(/C=C/C(=O)N(C)C2CCS(=O)(=O)C2)cc1 (stereo unspecified),"inconclusive: 126 µM [inhibitor, partial curve, poor fit]",–
CN(C)C(=O)c1cnc(Cc2c[nH]c3ccccc23)c(I)c1,active: 14.1 µM,–
Clc1ccc(-c2csc(-c3cccnc3)n2)cc1,"inconclusive: 28.2 µM [inhibitor, partial curve]",–
Cn1c2ccccc2c2c(C(=O)N3CCN(c4ccc(F)cc4)CC3)cn(C3CCCC3)c(=O)c21,"inconclusive: 39.8 µM [inhibitor, full curve, poor fit]",–
OCC#CC[N+]1(CC#Cc2ccc(C#CC[N+]3(CC#CCO)CCCCC3)cc2)CCCCC1,"inconclusive: 44.7 µM [inhibitor, partial curve, poor fit]",–
COc1ccc(Nc2nnc(-c3ccc(OCC(=O)N4CCCCC4)cc3)c3ccccc23)cc1,–,inactive: 41.3%
CSc1sccc1/C=C(/C#N)C(=O)c1ccco1,–,inactive: -1.56%
Cn1c(=O)c2cc(NC(=O)NCc3ccc(F)cc3)ccc2n1Cc1cccc(C(F)(F)F)c1,"inconclusive: 39.8 µM [inhibitor, partial curve]",–
Cc1cccc(OCC(=O)NCC(C)(C)N2CCOCC2)c1,–,inactive: -2.8%
COc1ccc(/C=C2\CC/C(=C\c3ccc(OC)c(OC)c3)C2=O)cc1OC,–,inactive: -10.9%
CC(C)c1ccccc1NC(=O)c1cccs1,"inconclusive: 39.8 µM [inhibitor, partial curve, poor fit]",–
COc1cc(CNC(=O)Cc2ccc(Cl)cc2)ccn1,"inconclusive: 0.178 µM [inhibitor, full curve, poor fit]",–
O=C(CSc1nnc(-c2cccnc2)n1CCN1CCCCC1)Nc1cccc(Cl)c1,–,inactive: -3.44%
CCc1cccc(C)c1NC(=O)C(C)n1c2ccccc2c2nc(=O)cc(C)n21 (stereo unspecified),"inconclusive: 0.447 µM [inhibitor, full curve, poor fit]",–
O=C(CN1C(=O)/C(=C/c2ccc(Cl)cc2)SC1=S)NC1C=CS(=O)(=O)C1 (stereo unspecified),–,inactive: -18%
CC(C)=CCCC1(C)C=Cc2c(ccc3c2[nH]c2cc(O)c(C)cc23)O1 (stereo unspecified),"inconclusive: 70.8 µM [inhibitor, partial curve, poor fit]",–
O=C(CN1CCN(C(=O)c2ccc(-c3nc4ccccc4s3)o2)CC1)Nc1ccccc1Cl,"inconclusive: 56.2 µM [inhibitor, partial curve, poor fit]",–
Cc1ccc(C(=O)N/N=C/c2ccncc2)s1,"inconclusive: 5.01 µM [inhibitor, single point]",–
CCCc1cc(-c2[nH]ncc2-c2ccc3c(c2)OCCCO3)c(O)cc1O,"inconclusive: 56.2 µM [inhibitor, partial curve, poor fit]",–

# Laid out differently: results already given
Structure (SMILES)	Potency	activity change, negative = inhibition
CSc1sccc1/C=C(/C#N)C(=O)c1ccco1	–	inactive: -1.56%
Cn1c(=O)c2cc(NC(=O)NCc3ccc(F)cc3)ccc2n1Cc1cccc(C(F)(F)F)c1	inconclusive: 39.8 µM [inhibitor, partial curve]	–
Cc1cccc(OCC(=O)NCC(C)(C)N2CCOCC2)c1	–	inactive: -2.8%
COc1ccc(/C=C2\CC/C(=C\c3ccc(OC)c(OC)c3)C2=O)cc1OC	–	inactive: -10.9%
CC(C)c1ccccc1NC(=O)c1cccs1	inconclusive: 39.8 µM [inhibitor, partial curve, poor fit]	–
COc1cc(CNC(=O)Cc2ccc(Cl)cc2)ccn1	inconclusive: 0.178 µM [inhibitor, full curve, poor fit]	–
O=C(CSc1nnc(-c2cccnc2)n1CCN1CCCCC1)Nc1cccc(Cl)c1	–	inactive: -3.44%
CCc1cccc(C)c1NC(=O)C(C)n1c2ccccc2c2nc(=O)cc(C)n21 (stereo unspecified)	inconclusive: 0.447 µM [inhibitor, full curve, poor fit]	–
O=C(CN1C(=O)/C(=C/c2ccc(Cl)cc2)SC1=S)NC1C=CS(=O)(=O)C1 (stereo unspecified)	–	inactive: -18%
CC(C)=CCCC1(C)C=Cc2c(ccc3c2[nH]c2cc(O)c(C)cc23)O1 (stereo unspecified)	inconclusive: 70.8 µM [inhibitor, partial curve, poor fit]	–
O=C(CN1CCN(C(=O)c2ccc(-c3nc4ccccc4s3)o2)CC1)Nc1ccccc1Cl	inconclusive: 56.2 µM [inhibitor, partial curve, poor fit]	–

# Next structures

Structure (SMILES),Potency,"activity change, negative = inhibition"
CCOc1cc2[nH]c(=S)n(CCCN3CCOCC3)c(=O)c2cc1OCC,–,inactive: -22.7%
O=C(/C=C/c1ccc(-c2cc(Cl)ccc2Cl)o1)c1ccc(F)cc1,"inconclusive: 50.1 µM [inhibitor, partial curve, poor fit]",–
Nc1ccc(N2CCCCC2)c(S(=O)(=O)Nc2ccccc2Cl)c1,"inconclusive: 79.4 µM [inhibitor, single point]",–
O=C(C1CCN(Cc2ccc(F)cc2)CC1)N(CCc1ccccc1)Cc1ccccc1,"inconclusive: 3.98 µM [inhibitor, full curve]",–
C=CCNC(=S)N/N=C/c1ccc(OCc2ccccc2Cl)cc1,"inconclusive: 8.91 µM [inhibitor, full curve, poor fit]",–
O=C(Oc1ccccc1)N1CCC2(CC1)CCN(c1ccccc1)CC2,"inconclusive: 28.2 µM [inhibitor, single point]",–
O=C(O)CCn1ncc2ccccc2c1=O,"inconclusive: 50.1 µM [inhibitor, partial curve, poor fit]",–
Cc1ccc(CN2CCCC(C(=O)N3CCCC3)C2)cc1 (stereo unspecified),"inconclusive: 0.631 µM [inhibitor, full curve]",–
CSc1ccc(Cn2c(C)c(C(=O)NCCC#N)sc2=O)cc1,–,inconclusive: -30.5% [inhibitor]
O=C1NC(=S)S/C1=C\c1cc(Cl)ccc1Cl,active: 7.94 µM,–
COc1ccc2sc(N(CCCN(C)C)C(=O)c3ccc(S(=O)(=O)N4CCc5ccccc5C4)cc3)nc2c1,"inconclusive: 79.4 µM [inhibitor, partial curve, poor fit]",–
O=C(Nc1cc(Cl)ccc1Cl)c1ccco1,–,inactive: 4.19%
COc1ccccc1OCC(=O)Nc1nc2c(s1)CC(C)CC2 (stereo unspecified),"inconclusive: 44.7 µM [inhibitor, partial curve, poor fit]",–
Cc1nnc(SCC(=O)N(C)CCOc2ccc(Br)cc2)n1C,"inconclusive: 31.6 µM [inhibitor, partial curve, poor fit]",–
Nc1nc(COC(=O)c2cccc(Cl)c2)nc2ccccc12,–,inactive: -1.56%
COc1ccc(C(c2sc3nc(C)nn3c2O)N2CCc3ccccc3C2)cc1 (stereo unspecified),"inconclusive: 39.8 µM [inhibitor, partial curve, poor fit]",–
O=C(NCC(c1ccccc1)c1ccccc1)c1n[nH]c(=O)c2ccccc12,"inconclusive: 112 µM [inhibitor, single point]",–
CCc1ccc(C2Sc3ccccc3NC3=C2C(=O)c2ccccc23)cc1 (stereo unspecified),"inconclusive: 112 µM [inhibitor, single point]",–
CCOC(=O)/C(C#N)=C/c1c(N2CCN(C)CC2)nc2c(C)cccn2c1=O,"inconclusive: 100 µM [inhibitor, partial curve, poor fit]",–
O=C(NCc1cc(C(F)(F)F)ccc1Cl)c1cccc2c1C(=O)c1ccc(N3CCCCC3)cc1S2(=O)=O,"inconclusive: 3.98 µM [inhibitor, full curve, poor fit]",–
